Numbering of substitutions follows the chain as printed. Results are given in words; binding and its absence hold for the method and conditions named. Binding seen in cells or lysates may run through a third protein. Some binding calls cover weakened binding; strength is not graded here. Tags and fused reporters may be left off the sequences shown.
What was measured:
Assay in all cases: co-IP; FLAG complexes immunoprecipitated with M2 anti-FLAG magnetic beads from RNase A (50 μg/ml) treated HEK293 cell lysates; lysis buffer 50 mM Tris pH 7.2, 150 mM NaCl, 0.5% Triton X-100; beads washed 3x; co-precipitated endogenous eIF4A3 detected by immunoblot
[1] = target: T1, FLAG-CWC22 (N171D/K172E) (human) (UniProt Q9HCG8)
T1 sequence: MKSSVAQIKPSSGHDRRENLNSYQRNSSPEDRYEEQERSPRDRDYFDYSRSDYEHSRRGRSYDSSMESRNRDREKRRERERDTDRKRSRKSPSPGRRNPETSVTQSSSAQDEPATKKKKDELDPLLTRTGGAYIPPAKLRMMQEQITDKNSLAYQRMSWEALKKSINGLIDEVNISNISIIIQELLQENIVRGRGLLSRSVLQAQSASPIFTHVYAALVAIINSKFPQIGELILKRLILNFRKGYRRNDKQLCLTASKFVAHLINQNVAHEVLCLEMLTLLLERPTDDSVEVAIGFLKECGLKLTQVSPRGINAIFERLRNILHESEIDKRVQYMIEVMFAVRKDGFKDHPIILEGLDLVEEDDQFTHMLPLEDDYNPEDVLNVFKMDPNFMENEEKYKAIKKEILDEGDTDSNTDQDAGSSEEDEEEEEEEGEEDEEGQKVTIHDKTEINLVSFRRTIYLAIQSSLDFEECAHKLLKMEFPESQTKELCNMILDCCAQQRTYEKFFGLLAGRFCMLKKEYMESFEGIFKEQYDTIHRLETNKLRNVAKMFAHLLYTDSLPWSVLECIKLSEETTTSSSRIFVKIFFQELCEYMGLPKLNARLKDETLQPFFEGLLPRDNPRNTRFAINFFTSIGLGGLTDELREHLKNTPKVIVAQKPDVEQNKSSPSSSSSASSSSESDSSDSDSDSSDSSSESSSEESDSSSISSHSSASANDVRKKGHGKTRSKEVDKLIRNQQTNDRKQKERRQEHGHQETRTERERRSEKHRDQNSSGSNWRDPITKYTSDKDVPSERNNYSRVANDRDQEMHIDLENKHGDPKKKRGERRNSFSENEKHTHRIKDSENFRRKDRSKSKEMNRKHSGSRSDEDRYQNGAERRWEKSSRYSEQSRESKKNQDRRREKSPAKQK

Amino acid sequences for entries named in this document (tags omitted).
UniProt P38919: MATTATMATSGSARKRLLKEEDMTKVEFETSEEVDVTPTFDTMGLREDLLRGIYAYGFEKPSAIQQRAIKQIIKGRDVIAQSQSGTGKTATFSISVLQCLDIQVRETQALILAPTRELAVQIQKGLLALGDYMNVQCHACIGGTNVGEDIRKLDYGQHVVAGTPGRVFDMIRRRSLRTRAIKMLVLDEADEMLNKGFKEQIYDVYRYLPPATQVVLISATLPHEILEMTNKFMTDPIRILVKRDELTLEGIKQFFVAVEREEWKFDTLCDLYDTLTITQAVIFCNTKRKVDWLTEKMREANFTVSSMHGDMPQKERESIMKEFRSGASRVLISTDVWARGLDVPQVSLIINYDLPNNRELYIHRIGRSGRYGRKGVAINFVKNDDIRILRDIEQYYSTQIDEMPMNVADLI

[2] = target: T2, FLAG-CWC22 (Y133E/R140E) (human) (UniProt Q9HCG8)
T2 sequence: T1 sequence with Y133E, R140E, D171N, E172K

[3] = target: T3, FLAG-CWC22 (wild type) (human) (UniProt Q9HCG8)
T3 sequence: T1 sequence with D171N, E172K

binding [1]: no binding
binding [2]: no binding
binding [3]: binds
Substance: endogenous eIF4A3 (from UniProt P38919 1-411)

Source: article PMC4482076
